Measured values: article PMC6756050
No constants are given. Whether binding was seen depends on the method and setting. Where a sequence is shown, tags or fusion partners need not be part of it.

Target: GST-tagged acidic region of MDM2
Test: pull-down; purified GST-tagged proteins or GST alone on glutathione-Sepharose beads overnight at 4 °C, His-tagged proteins added for 4 h at 4 °C, three washes, elution, western blot; both purified

B1: His-tagged HBP1 (protein, UniProt O60381 1-514)
chain: MVWEVKTNQMPNAVQKLLLVMDKRASGMNDSLELLQCNENLPSSPGYNSCDEHMELDDLPELQAVQSDPTQSGMYQLSSDVSHQEYPRSSWNQNTSDIPETTYRENEVDWLTELANIATSPQSPLMQCSFYNRSSPVHIIATSKSLHSYARPPPVSSSSKSEPAFPHHHWKEETPVRHERANSESESGIFCMSSLSDDDDLGWCNSWPSTVWHCFLKGTRLCFHKGSNKEWQDVEDFARAEGCDNEEDLQMGIHKGYGSDGLKLLSHEESVSFGESVLKLTFDPGTVEDGLLTVECKLDHPFYVKNKGWSSFYPSLTVVQHGIPCCEVHIGDVCLPPGHPDAINFDDSGVFDTFKSYDFTPMDSSAVYVLSSMARQRRASLSCGGPGGQDFARSGFSKNCGSPGSSQLSSNSLYAKAVKNHSSGTVSATSPNKCKRPMNAFMLFAKKYRVEYTQMYPGKDNRAISVILGDRWKKMKNEERRMYTLEAKALAEEQKRLNPDCWKRKRTNSGSQQH
Question: For B1, which binding is on record?
Answer: no binding
